About 5,500 (1.4%) of roughly 400,000 compounds were called active. This list was built around the results that the source calls inconclusive (neither active nor inactive); the mix of calls is not that of the screen. Calls come from the whole dose curve; as a rule, active = well fitted cell-killing curve with a large enough effect; inconclusive = small, poorly fitted or top-dose-only effect, or effect the other way; inactive = flat fitted curve, though single readings scatter. Potencies of inconclusive entries are doubtful fits and often do not repeat.
Experiment: qHTS assay for MDR1-selective chemotherapeutics: Primary screen using the parental adenocarcinoma cell KB-3-1; note: nearly all actives have a fitted effect of over 60% in size
Conditions: KB-3-1 viability, CellTiter-Glo ATP luminescence, 72 h; activity change, negative = cytotoxic: at 46.1 µM (top of the series)
Outline: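 KB-3-1 parental drug-naive adenocarcinoma cells in DMEM/10% FBS, incubated 72 h at 37 C with pin-transferred compounds across a concentration series. Viability by CellTiter-Glo luminescence; concentration-response curves fitted after normalization.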
% is set by controls: 0 for no effect and ±100 for the full control effect; potency is the fitted concentration of half-maximal effect.

Compound | Potency | activity change, negative = cytotoxic
O=[N+]([O-])c1ccc(N/N=C/c2c[nH]c3ccccc23)cc1 | inconclusive: 18.4 µM [cytotoxic, single point] | –
COc1cc2c(cc1OC)CN(S(=O)(=O)c1ccc3c(c1)OCCO3)CC2 | inconclusive: 29.1 µM [cytotoxic, single point] | –
Oc1cccc2ccc(Nc3ccccn3)nc12 | active: 5.8 µM | –
COc1ccc(CNC(=O)c2cccc3c(-c4cccc(C(N)=O)c4)coc23)cc1OC | inconclusive: 23.1 µM [cytotoxic, single point] | –
O=C1CCCC2=C1C(c1ccco1)Nc1ccc(C(=O)c3ccccc3)cc1N2 (configuration not stated) | inconclusive: 29.1 µM [cytotoxic, single point] | –
CC1CCN(CC(=O)Nc2cccc(Cl)c2)CC1 | inactive | –
COc1cccc(OCC(=O)Nc2ccncc2)c1 | inconclusive: 29.1 µM [cytotoxic, single point] | –
Cc1ccccc1CN1CCc2nc(Nc3ccc4c(c3)OCCO4)ncc2C1 | inconclusive: 29.1 µM [cytotoxic, single point] | –
O=C(NCC1CC1)c1ccc2c3n(nc2c1)-c1ccccc1CO3 | inconclusive: 8.2 µM [cytotoxic, partial curve, poor fit] | –
c1ccc(C2=NN(c3ccccc3)C(c3ccco3)C2)cc1 (configuration not stated) | inconclusive: 9.2 µM [rising, partial curve, poor fit] | –
CCCC(=O)c1ccc(N2CCN(S(=O)(=O)c3ccccc3)CC2)c(F)c1 | inconclusive: 29.1 µM [cytotoxic, single point] | –
Cn1cccc1C(=O)NCc1ccccn1 | inactive | –
O=C(NNC(=O)c1ccc2ccccc2c1O)c1cccs1 | – | inconclusive: -4.93%
CCCCOc1ccc(-c2cc(C(=O)NNC(=S)NCC)c3ccccc3n2)cc1 | active: 7.31 µM | –
Cc1ccccc1CN(C)CC(=O)Nc1cccc(S(=O)(=O)N(C)c2ccccc2)c1 | inconclusive: 32.6 µM [cytotoxic, single point] | –
Cc1ccc(S(=O)(=O)CCC(=O)N(CCCN2CCOCC2)c2nc3ccccc3s2)cc1 | inconclusive: 20.6 µM [cytotoxic, single point] | –
FC(F)Sc1ccc(-n2cc(-c3ccccc3)[n+]3c2CCC3)cc1 | active: 14.6 µM | –
CC(=O)c1ccc(N2CCN(S(=O)(=O)c3ccc4c(c3)CC(=O)N4)CC2)cc1 | inconclusive: 28.2 µM [rising, partial curve] | –
CCC(C)CCN1C(Nc2ccccc2)=NC[C@@H]1CC(C)C (some centres not stated) | inconclusive: 29.1 µM [cytotoxic, single point] | –
CC12CCC3c4ccc(O)cc4CCC3C1CCC2=O (configuration not stated) | inactive | –
O=c1[nH]c(Cc2ccc(F)cc2)nc2scc(-c3ccc(F)cc3)c12 | inconclusive: 14.6 µM [cytotoxic, partial curve] | –
N#CC1=C(SCc2ccccc2)NC(=O)C(C#N)C12CCCC2 (configuration not stated) | active: 11.6 µM | –
CC1CCN(C(=O)COc2cccc3c2CCN(Cc2ccccc2)C3=O)CC1 | inconclusive: 9.2 µM [cytotoxic, partial curve, poor fit] | –
CCOC(=O)c1ccc(NC(=O)NCCN2CCCCC2)cc1 | active: 16.4 µM | –

Two records picked at random from those above:
Compound | Potency | activity change, negative = cytotoxic
CCC(C)CCN1C(Nc2ccccc2)=NC[C@@H]1CC(C)C (some centres not stated) | inconclusive: 29.1 µM [cytotoxic, single point] | –
O=C(NNC(=O)c1ccc2ccccc2c1O)c1cccs1 | – | inconclusive: -4.93%

Later entries.

Compound | Potency | activity change, negative = cytotoxic
Cc1nc2nc(C)c(NS(=O)(=O)c3cccs3)c(=O)n2[nH]1 | inconclusive: 1.84 µM [rising, full curve, poor fit] | –
CCCCN(C(=O)C1CC(=O)N(Cc2ccc(C)cc2)C1)c1c(N)n(CC(C)C)c(=O)[nH]c1=O (configuration not stated) | inconclusive: 29.1 µM [rising, single point] | –
COc1ccc(-c2nc3nc(C)cc(Nc4ccc(C(C)=O)cc4)n3n2)cc1 | inconclusive: 16.4 µM [cytotoxic, single point] | –
COc1cc(-c2nnc(SCC(=O)/C(C#N)=C(\C)N)o2)cc(OC)c1OC | inconclusive: 8.2 µM [rising, partial curve] | –
COC(=O)c1ccc(NC(=O)Cc2coc3cc(C)ccc23)cc1 | inactive | –
Cc1cccc(N2CCN(C(=O)Cc3cn(C)c4ccccc34)CC2)c1C | inconclusive: 29.1 µM [cytotoxic, single point] | –
CCOc1ccc(N=Nc2c(C)noc2C)cc1 | inactive | –
COc1ccccc1NC(=O)Nc1nc(CC(=O)Nc2ccc(N(C)C)cc2)cs1 | inconclusive: 29.1 µM [rising, single point] | –
COc1cc(CNc2ccc3[nH]c(=O)[nH]c3c2)cc(Br)c1OCC(=O)NC(C)(C)C | inactive | –
O=C(NC(c1ccc(-c2ccccc2)cc1)c1cnccn1)C1CCN(Cc2cccs2)CC1 (configuration not stated) | inactive | –
Cc1ccc(-c2nnc(SCC(=O)N/N=C/c3ccccc3C(=O)O)n2-c2ccc(C)cc2)cc1 | inactive | –
O=C(Nc1cccnc1)c1ccc(COc2ccccc2Br)cc1 | inconclusive: 29.1 µM [cytotoxic, single point] | –
Cc1ccc(C(=O)Sc2cccccc2=O)cc1 | inconclusive: 2.91 µM [cytotoxic, full curve] | –
O=C(Cn1nc(N2CCN(c3ccccc3)CC2)ccc1=O)NCc1cccc(Cl)c1 | inactive | –
Cc1nc2ccc(NS(=O)(=O)c3ccc(F)c(C)c3)cc2[nH]1 | inconclusive: 11.6 µM [cytotoxic, partial curve, poor fit] | –
Cc1nc2nc(SCC(=O)NCc3ccccc3)nn2c(C)c1Cc1ccccc1Cl | inconclusive: 20.6 µM [cytotoxic, single point] | –
COC1=C(Br)C(=O)c2ncccc2C1=O | inconclusive: 20.6 µM [cytotoxic, single point] | –
CCOC(=O)C1=C(CSCC(=O)OC)NC(=O)NC1c1cc(C)ccc1C (configuration not stated) | inactive | –
CN1CC(c2ccc(C#N)cc2)C2(COc3ccccc3C2=O)C12C(=O)Nc1ccccc12 (configuration not stated) | inconclusive: 23.1 µM [cytotoxic, single point] | –
CC(C)N1CC(C(=O)Nc2ccc(Cl)cc2Cl)CC1=O (configuration not stated) | inactive | –
NC(=S)N/N=C/c1ccccc1OCc1cccc(Cl)c1 | active: 18.4 µM | –
CCC/C=N/NC(=O)c1[nH]c2c([N+](=O)[O-])cccc2c1C | active: 23.1 µM | –
CCN(CC)CCNC(=O)C1CCN(S(=O)(=O)c2c(C)noc2/C=C/c2ccccc2F)CC1 | inactive | –
CCn1c(=O)c2sccc2n(Cc2ccccc2)c1=O | inconclusive: 0.461 µM [cytotoxic, full curve] | –

Compound | Potency | activity change, negative = cytotoxic
Cc1ccc2c(c1)Sc1c(ccc3ccccc13)N2 | inactive | –
COc1ccc(COC(=O)C2=C(C)NC(=O)NC2c2ccc(OC)cc2)cc1 (configuration not stated) | inconclusive: 29.1 µM [cytotoxic, single point] | –
CCOc1ccc(NC(=O)OCCN2CCN(CCc3ccccc3)C(C)C2)cc1 (configuration not stated) | inconclusive: 29.1 µM [cytotoxic, single point] | –
O=C(O)c1ccc(/C=N\Nc2ccccn2)cc1 | inconclusive: 16.4 µM [cytotoxic, partial curve] | –
CCC(C)NC(=O)c1ccc2nc(-c3ccc(OC)c(OC)c3)c(-c3ccc(OC)c(OC)c3)nc2c1 (configuration not stated) | inactive | –
CCCCn1c(N)c(N(CCOC)C(=O)CSc2nnc(-c3ccco3)n2CC)c(=O)[nH]c1=O | – | inconclusive: -5.07%
O=C(Nc1nccs1)c1cc([N+](=O)[O-])ccc1Cl | inconclusive: 29.1 µM [cytotoxic, single point] | –
CC(C)(C)OC(=O)NNC(=S)NCc1ccc(Cl)cc1 | inconclusive: 29.1 µM [rising, single point] | –
N#Cc1cnc(Nc2ccc(F)cc2)nc1N | inconclusive: 13 µM [cytotoxic, partial curve] | –
O=C(NCCCn1ncc2ccccc21)c1cc(COc2c(F)cccc2F)on1 | inconclusive: 29.1 µM [rising, single point] | –
COc1ccc(C(c2nnnn2Cc2ccccc2)N2CCN(c3nc4ccccc4s3)CC2)cc1OC (configuration not stated) | inactive | –
CO/N=C\c1cc(C(=O)c2ccc(Cl)cc2Cl)cn1C | – | inconclusive: -16.8%
CN(C)C(=O)c1cc(Cl)ccc1Sc1cc(Cl)ccc1Cl | inconclusive: 29.1 µM [cytotoxic, single point] | –
NS(=O)(=O)c1ccc(N2N=C(c3ccccc3)CC2c2ccc(Br)cc2)cc1 (configuration not stated) | inconclusive: 29.1 µM [cytotoxic, single point] | –
CCNC(=O)C1CC(=O)N(Cc2ccc(F)cc2)C(=Nc2ccc(OC)cc2)S1 (configuration not stated) | inconclusive: 0.184 µM [cytotoxic, full curve] | –
COc1ccc(CN2CCN(Cc3ccccc3)C(CCO)C2)cc1OC (configuration not stated) | inactive | –
CCCCCn1c(=O)[nH]c2cc(C(=O)NCc3ccc(OC)cc3)ccc2c1=O | inactive | –
CCOc1ccc(-n2nc3cc(C)c(NC(=O)CC)cc3n2)cc1 | inconclusive: 29.1 µM [rising, single point] | –
CCCNc1nc(NCc2ccccc2OC)c2cnn(C)c2n1 | inconclusive: 25.9 µM [cytotoxic, single point] | –
N#Cc1cnn(-c2ccccc2)c1N | inactive | –
COc1cc2c(cc1OC)C(C)N(C(=O)c1cc3c(s1)-c1ccccc1OC3)CC2 (configuration not stated) | inconclusive: 29.1 µM [cytotoxic, single point] | –
Cc1cc(=O)oc2cc(Oc3ccc([N+](=O)[O-])cc3[N+](=O)[O-])ccc12 | inactive | –
C[C@H](CO)N1C[C@H](C)[C@@H](CN(C)Cc2ccccc2)Oc2ccc(NC(=O)CCCCCC(=O)Nc3ccccc3N)cc2C1=O | inconclusive: 29.1 µM [cytotoxic, single point] | –
COc1ccccc1NC(=O)CN1C(=O)c2cccc3cccc1c23 | inconclusive: 2.06 µM [cytotoxic, partial curve, poor fit] | –

Reference: PubChem BioAssay AID1347075 (National Center for Advancing Translational Sciences (NCATS), 2019)
